Reference: the supplement of paper PMC3334620
The full ranking holds about 33,000 sequences; the median of “E-score (-0.5 to 0.5)” is about -0.0034, and the highest 2% start at about 0.25. Some of the results follow.

What follows are sequences tested against T1, Yap3 (UniProt P38749) (assay: PBM E-score (8-mer binding enrichment) (E-score (-0.5 to 0.5)); higher = stronger / more preferred TF binding). Conditions: protein concentration: 100 nM; construct: GST-full length.
T1 sequence: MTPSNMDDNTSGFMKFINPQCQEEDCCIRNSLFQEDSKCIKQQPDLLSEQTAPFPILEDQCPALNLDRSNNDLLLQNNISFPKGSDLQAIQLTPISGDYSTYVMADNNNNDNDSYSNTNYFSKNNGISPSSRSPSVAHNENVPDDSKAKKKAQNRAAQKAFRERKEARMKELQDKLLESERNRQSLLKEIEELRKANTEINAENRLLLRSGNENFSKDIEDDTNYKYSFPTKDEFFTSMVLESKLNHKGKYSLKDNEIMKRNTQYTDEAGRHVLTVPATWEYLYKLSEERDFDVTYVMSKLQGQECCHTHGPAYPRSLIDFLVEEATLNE
Outline: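 Yeast transcription factors, full-length or as DNA-binding domains, were expressed with a GST tag using PURExpress in vitro transcription/translation. At about 100-200 nM they were applied to universal all-10-mer Agilent arrays, double-stranded by primer extension on fresh or once-stripped slides. Fluorescent anti-GST detected bound protein, and masliner normalised the scans. E-scores for ungapped eight-base words, pooled with reverse complements, came from the Universal PBM Analysis Suite.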

Sequence	PBM E-score
AAGTCTAT	0.00548
CTGGGGTC	-0.128
AGGTATCG	0.136
CGCTATTA	0.0889
GACCCCGC	-0.105
ACTATTTG	0.155
AGTGGACG	0.0142
AACCTGTA	0.06
CTTGGCTA	-0.00074
ATGCCGAA	0.0391
ATTCGAAT	0.0256
GAAGACGA	0.119
ACGTTGCA	-0.0509
CCCAGGAA	-0.0841
CCACCCTC	0.0377
GGTGAACA	-0.183
AACTGAGG	0.0789
AATGACTG	0.101
AGCAATTA	0.085
CCTGGACG	-0.162
AACTAGGT	0.154
ACGTTCCA	0.1
ACGCAATC	0.0568
CGACAGAC	-0.0804

Sequence	PBM E-score
CGGAGGCA	-0.148
GTAACTAC	0.0999
AAATCTCT	-0.0251
AACCACAA	0.148
GCGCCTTA	0.0395
ATTCCGAC	0.127
CGAAGCCA	-0.0192
AGGTACAA	-0.0364
AGAGGACC	-0.121
CTTTTGGA	-0.0508
TCAATAAA	0.148
CCGATACC	-0.054
TCCAGAGA	-0.169
TCTGCCCA	-0.148
AGTGCGAT	-0.0748
GGTTCAGA	-0.0354
GGTTTTGA	0.0555
ACCATCTC	0.104
CCCTCACA	-0.106
CCTCCTGC	-0.172
CGCATTAA	0.167
AACCTTGG	-0.0497
CGACAAAA	0.243
ACCACCGA	-0.109

Given with bars between the fields: entries from further up
Sequence | PBM E-score
AACTAGGT | 0.154
CGAAGCCA | -0.0192
TCAATAAA | 0.148
AGTGCGAT | -0.0748
ACCATCTC | 0.104

(listing goes on)

Sequence	PBM E-score
CAACCCAG	-0.174
CTGGACAA	-0.106
ATCTCCTG	0.0684
CAGCGAAG	-0.16
GACCTCAA	0.0909
CCCACCGC	-0.00756
TCTCTAAA	0.0348
GCTCGAAA	0.0771
ATTGTTCG	0.171
GCACGCCA	-0.263
CAACCGAG	0.0888
GCGGCGCC	0.0677
AGTATCGC	0.0525
CTTCACGA	-0.293
AAAGAACT	0.145
GCATGGTA	0.0244
CCATATGA	0.00159
ATAGAGGC	-0.0393
ATTCAGGA	0.0435
CGAACAAA	0.303
TATTCGCA	0.0736
CTTTTCGA	0.0999
GTATCGAA	0.129
GAGGCAAA	0.166

Sequence	PBM E-score
ACTCGCGG	0.0017
AGGGAGGC	-0.281
CGATGATC	-0.0736
ATGTCACG	0.0609
AAGACGAG	-0.105
GTGGCCAC	-0.0436
AGCGTTGA	-0.161
GACGGTGC	-0.146
AATCCCTG	-0.102
ATGAGGTG	0.035
TGGACACA	0.0862
GCAGGGTA	-0.00172
AGTCGATG	0.0111
AAGCCAGT	-0.106
ACGATAAC	0.207
ACTACACT	-0.0412
ATCGCTCG	-0.0755
TTTATAAA	0.277
ACTGGAAC	-0.101
TACCGAGA	0.0165
CAGACCAC	0.0738
GACTCAGA	0.0377
